Results reported in patent publication US20160046620A1, “METHODS OF CONTROLLING NEONICOTINOID RESISTANT PESTS” (SYNGENTA PARTICIPATIONS AG, priority 2013, published 2016).
Some results were stated once for a whole list of compounds, not compound by compound.

Test system: Q-biotype (Neonicotinoid resistant) strain of Bemisia tabaci
Assay: Control of neonicotinoid resistant tobacco whitefly, preventive egg lay bioassay on cotton / dose-response bioassay
Type: in vivo
Conditions: for control of the Q-biotype (Neonicotinoid resistant) strain of Bemisia tabaci: 200 ppm; for resistance factor: Q-biotype resistant vs standard susceptible strain of Bemisia tabaci

SMILES	control of the Q-biotype (Neonicotinoid resistant) strain of Bemisia tabaci	resistance factor
C=CC(C)N1[C@@H]2CC[C@H]1C[C@](C#N)(c1cncc(C#N)c1)C2 (stereo partly shown) [Compound 1.204]	at least 80%	≤ 20
N#Cc1cncc([C@]2(C#N)C[C@H]3CC[C@@H](C2)N3C2CCC2)c1 [Compound 1.245]	at least 80%	≤ 20
CNC(=O)C(C)N1[C@@H]2CC[C@H]1C[C@](C#N)(c1cncc(C#N)c1)C2 (stereo partly shown) [Compound 1.255]	at least 80%	≤ 20
CCSCCN1[C@@H]2CC[C@H]1C[C@](C#N)(c1cncc(C#N)c1)C2 [Compound 1.263]	at least 80%	≤ 20
COC(=O)[C@@H](C)N1[C@@H]2C=C[C@H]1C[C@](C#N)(c1cncc(C#N)c1)C2 [Compound 2.011]	at least 80%	≤ 20
N#Cc1cncc([C@]2(C#N)C[C@H]3C=C[C@@H](C2)N3CCCC(F)(F)F)c1 [Compound 2.108]	at least 80%	≤ 20
N#Cc1cncc([C@]2(C#N)C[C@H]3C=C[C@@H](C2)N3C2CSC2)c1 [Compound 2.155]	at least 80%	≤ 20
COCCOCCN1[C@@H]2C=C[C@H]1C[C@](C#N)(c1cncc(C#N)c1)C2 [Compound 2.163]	at least 80%	≤ 20
COCCNC(=O)CN1[C@@H]2C=C[C@H]1C[C@](C#N)(c1cncc(C#N)c1)C2 [Compound 2.164]	at least 80%	≤ 20
CC(C)N1[C@@H]2C=C[C@H]1C[C@](C#N)(c1cncc(C#N)c1)C2 [Compound 2.174]	at least 80%	≤ 20
N#Cc1cncc([C@]2(C#N)C[C@H]3C=C[C@@H](C2)N3CC2COC2)c1 [Compound 2.179]	at least 80%	≤ 20
C=C(Br)CN1[C@@H]2C=C[C@H]1C[C@](C#N)(c1cncc(C#N)c1)C2 [Compound 2.184]	at least 80%	≤ 20
C#CCCN1[C@@H]2C=C[C@H]1C[C@](C#N)(c1cncc(C#N)c1)C2 [Compound 2.186]	at least 80%	≤ 20
C#CCCCN1[C@@H]2C=C[C@H]1C[C@](C#N)(c1cncc(C#N)c1)C2 [Compound 2.187]	at least 80%	≤ 20
CC(C)=CCN1[C@@H]2C=C[C@H]1C[C@](C#N)(c1cncc(C#N)c1)C2 [Compound 2.195]	at least 80%	≤ 20
COCC(C)N1[C@@H]2C=C[C@H]1C[C@](C#N)(c1cncc(C#N)c1)C2 (stereo partly shown) [Compound 2.210]	at least 80%	≤ 20
C/C=C/C(C)N1[C@@H]2C=C[C@H]1C[C@](C#N)(c1cncc(C#N)c1)C2 (stereo partly shown) [Compound 2.215]	at least 80%	≤ 20
C=CCN1[C@@H]2C=C[C@H]1C[C@](C#N)(c1cncc(C#N)c1)C2 [Compound 2.232]	at least 80%	≤ 20
N#Cc1cncc([C@]2(C#N)C[C@H]3C=C[C@@H](C2)N3CC2CCC(=O)O2)c1 (stereo partly shown) [Compound 2.234]	at least 80%	≤ 20
N#Cc1cncc([C@]2(C#N)C[C@H]3C=C[C@@H](C2)N3C/C(Cl)=C\Cl)c1 [Compound 2.239]	at least 80%	≤ 20
